Values of other authors as cited in patent US20110243993A1, “Method for diagnosing and creating immunogenic tolerance in contact allergy and other epithelial immunotoxicological ailments” (priority 2010, published 2011).
Some results were stated once for a whole list of compounds, not compound by compound. For at least one compound, name, drawing or mass did not settle the structure.

Conditions: class used to choose the test concentration; cited from earlier work

Row | SMILES | sensitizer class by EC3-value
1 | CCOC=C1N=C(c2ccccc2)OC1=O [Oxazolone, 4-Ethoxymethylene-2-phenyl-2-oxazolin-5-one] | Extreme (For extreme sensitizers (EC3<0.1%))
2 | OCCc1ccccc1 [Phenyl ethyl alcohol] | Weak (For weak sensitizers (EC3>10%))
3 | Cc1c(CBr)n2c(CBr)c(C)c(=O)n2c1=O [dBBr, dibromobimane] | Strong (For strong sensitizers (0.1%<EC3<1%))
4 | Cc1c(C)n2c(CBr)c(C)c(=O)n2c1=O [mBBr] | Strong (For strong sensitizers (0.1%<EC3<1%))
5 | Cc1c(CBr)n2c(C[N+](C)(C)C)c(C)c(=O)n2c1=O.[Br-] [qBBr] | Strong (For strong sensitizers (0.1%<EC3<1%))
